# Data from publication PMC8206213, “An L-2-hydroxyglutarate biosensor based on specific transcriptional regulator LhgR” (Nature Communications, 2021).
# A unit is not stated for every read-out.
# Assay: Emission and excitation spectra of purified LHGFR with or without 100 μM L-2-HG
# Type: binding
compound,measurement,setting,value
"O=C(O)CC[C@H](O)C(=O)O [L-2-HG, L-2-Hydroxyglutarate]","Fluorescence intensity, excitation spectrum","excitation 428 nm, Suppl. Fig. 8c",376961
same,"Fluorescence intensity, excitation spectrum","excitation 428 nm, Suppl. Fig. 8d",416622
same,"Fluorescence intensity, excitation spectrum","excitation 430 nm, Suppl. Fig. 8c",403300
same,"Fluorescence intensity, excitation spectrum","excitation 430 nm, Suppl. Fig. 8d",446658
same,"Fluorescence intensity, excitation spectrum","excitation 432 nm, Suppl. Fig. 8c",442942
same,"Fluorescence intensity, excitation spectrum","excitation 432 nm, Suppl. Fig. 8d",490401
same,"Fluorescence intensity, excitation spectrum","excitation 434 nm, Suppl. Fig. 8c",513298
same,"Fluorescence intensity, excitation spectrum","excitation 434 nm, Suppl. Fig. 8d",570170
same,"Fluorescence intensity, excitation spectrum","excitation 436 nm, Suppl. Fig. 8c",600225
same,"Fluorescence intensity, excitation spectrum","excitation 436 nm, Suppl. Fig. 8d",660880
same,"Fluorescence intensity, excitation spectrum","excitation 438 nm, Suppl. Fig. 8c",633266
same,"Fluorescence intensity, excitation spectrum","excitation 438 nm, Suppl. Fig. 8d",710516
same,"Fluorescence intensity, excitation spectrum","excitation 440 nm, Suppl. Fig. 8c",672221
same,"Fluorescence intensity, excitation spectrum","excitation 440 nm, Suppl. Fig. 8d",753426
same,"Fluorescence intensity, excitation spectrum","excitation 442 nm, Suppl. Fig. 8c",701301
same,"Fluorescence intensity, excitation spectrum","excitation 442 nm, Suppl. Fig. 8d",781102
same,"Fluorescence intensity, excitation spectrum","excitation 444 nm, Suppl. Fig. 8c",726084
same,"Fluorescence intensity, excitation spectrum","excitation 444 nm, Suppl. Fig. 8d",808990
same,"Fluorescence intensity, excitation spectrum","excitation 446 nm, Suppl. Fig. 8c",762067
same,"Fluorescence intensity, excitation spectrum","excitation 446 nm, Suppl. Fig. 8d",846079
same,"Fluorescence intensity, excitation spectrum","excitation 448 nm, Suppl. Fig. 8c",782118
same,"Fluorescence intensity, excitation spectrum","excitation 448 nm, Suppl. Fig. 8d",873313
same,"Fluorescence intensity, excitation spectrum","excitation 450 nm, Suppl. Fig. 8c",817397
same,"Fluorescence intensity, excitation spectrum","excitation 450 nm, Suppl. Fig. 8d",910254
same,"Fluorescence intensity, excitation spectrum","excitation 452 nm, Suppl. Fig. 8c",841311
same,"Fluorescence intensity, excitation spectrum","excitation 452 nm, Suppl. Fig. 8d",939648
same,"Fluorescence intensity, excitation spectrum","excitation 454 nm, Suppl. Fig. 8c",869053
same,"Fluorescence intensity, excitation spectrum","excitation 454 nm, Suppl. Fig. 8d",969090
same,"Fluorescence intensity, excitation spectrum","excitation 456 nm, Suppl. Fig. 8c",933158
same,"Fluorescence intensity, excitation spectrum","excitation 456 nm, Suppl. Fig. 8d",1.05E+06
same,"Fluorescence intensity, excitation spectrum","excitation 458 nm, Suppl. Fig. 8c",1.00E+06
same,"Fluorescence intensity, excitation spectrum","excitation 458 nm, Suppl. Fig. 8d",1.13E+06
same,"Fluorescence intensity, excitation spectrum","excitation 460 nm, Suppl. Fig. 8c",1.08E+06
same,"Fluorescence intensity, excitation spectrum","excitation 460 nm, Suppl. Fig. 8d",1.21E+06
same,"Fluorescence intensity, excitation spectrum","excitation 462 nm, Suppl. Fig. 8c",1.11E+06
same,"Fluorescence intensity, excitation spectrum","excitation 462 nm, Suppl. Fig. 8d",1.25E+06
same,"Fluorescence intensity, excitation spectrum","excitation 464 nm, Suppl. Fig. 8c",1.16E+06
same,"Fluorescence intensity, excitation spectrum","excitation 464 nm, Suppl. Fig. 8d",1.30E+06
same,"Fluorescence intensity, excitation spectrum","excitation 466 nm, Suppl. Fig. 8c",1.19E+06
same,"Fluorescence intensity, excitation spectrum","excitation 466 nm, Suppl. Fig. 8d",1.34E+06
same,"Fluorescence intensity, excitation spectrum","excitation 468 nm, Suppl. Fig. 8c",1.23E+06
same,"Fluorescence intensity, excitation spectrum","excitation 468 nm, Suppl. Fig. 8d",1.40E+06
same,"Fluorescence intensity, excitation spectrum","excitation 470 nm, Suppl. Fig. 8c",1.28E+06
same,"Fluorescence intensity, excitation spectrum","excitation 470 nm, Suppl. Fig. 8d",1.45E+06
same,"Fluorescence intensity, excitation spectrum","excitation 472 nm, Suppl. Fig. 8c",1.32E+06
same,"Fluorescence intensity, excitation spectrum","excitation 472 nm, Suppl. Fig. 8d",1.50E+06
same,"Fluorescence intensity, excitation spectrum","excitation 474 nm, Suppl. Fig. 8c",1.38E+06
same,"Fluorescence intensity, excitation spectrum","excitation 474 nm, Suppl. Fig. 8d",1.56E+06
same,"Fluorescence intensity, excitation spectrum","excitation 476 nm, Suppl. Fig. 8c",1.43E+06
same,"Fluorescence intensity, excitation spectrum","excitation 476 nm, Suppl. Fig. 8d",1.63E+06
same,"Fluorescence intensity, excitation spectrum","excitation 478 nm, Suppl. Fig. 8c",1.52E+06
same,"Fluorescence intensity, excitation spectrum","excitation 478 nm, Suppl. Fig. 8d",1.73E+06
same,"Fluorescence intensity, excitation spectrum","excitation 480 nm, Suppl. Fig. 8c",1.62E+06
same,"Fluorescence intensity, excitation spectrum","excitation 480 nm, Suppl. Fig. 8d",1.86E+06
same,"Fluorescence intensity, excitation spectrum","excitation 482 nm, Suppl. Fig. 8c",1.71E+06
same,"Fluorescence intensity, excitation spectrum","excitation 482 nm, Suppl. Fig. 8d",1.97E+06
same,"Fluorescence intensity, excitation spectrum","excitation 484 nm, Suppl. Fig. 8c",1.69E+06
same,"Fluorescence intensity, excitation spectrum","excitation 484 nm, Suppl. Fig. 8d",1.95E+06
same,"Fluorescence intensity, excitation spectrum","excitation 486 nm, Suppl. Fig. 8c",1.66E+06
same,"Fluorescence intensity, excitation spectrum","excitation 486 nm, Suppl. Fig. 8d",1.93E+06
same,"Fluorescence intensity, excitation spectrum","excitation 488 nm, Suppl. Fig. 8c",1.65E+06
same,"Fluorescence intensity, excitation spectrum","excitation 488 nm, Suppl. Fig. 8d",1.91E+06
same,"Fluorescence intensity, excitation spectrum","excitation 490 nm, Suppl. Fig. 8c",1.64E+06
same,"Fluorescence intensity, excitation spectrum","excitation 490 nm, Suppl. Fig. 8d",1.91E+06
same,"Fluorescence intensity, excitation spectrum","excitation 492 nm, Suppl. Fig. 8c",1.62E+06
same,"Fluorescence intensity, excitation spectrum","excitation 492 nm, Suppl. Fig. 8d",1.91E+06
same,"Fluorescence intensity, excitation spectrum","excitation 494 nm, Suppl. Fig. 8c",1.64E+06
same,"Fluorescence intensity, excitation spectrum","excitation 494 nm, Suppl. Fig. 8d",1.91E+06
same,"Fluorescence intensity, excitation spectrum","excitation 496 nm, Suppl. Fig. 8c",1.66E+06
same,"Fluorescence intensity, excitation spectrum","excitation 496 nm, Suppl. Fig. 8d",1.94E+06
same,"Fluorescence intensity, excitation spectrum","excitation 498 nm, Suppl. Fig. 8c",1.69E+06
same,"Fluorescence intensity, excitation spectrum","excitation 498 nm, Suppl. Fig. 8d",1.98E+06
same,"Fluorescence intensity, excitation spectrum","excitation 500 nm, Suppl. Fig. 8c",1.76E+06
same,"Fluorescence intensity, excitation spectrum","excitation 500 nm, Suppl. Fig. 8d",2.08E+06
same,"Fluorescence intensity, excitation spectrum","excitation 502 nm, Suppl. Fig. 8c",1.91E+06
same,"Fluorescence intensity, excitation spectrum","excitation 502 nm, Suppl. Fig. 8d",2.25E+06
same,"Fluorescence intensity, excitation spectrum","excitation 504 nm, Suppl. Fig. 8c",2.34E+06
same,"Fluorescence intensity, excitation spectrum","excitation 504 nm, Suppl. Fig. 8d",2.76E+06
same,"Fluorescence intensity, excitation spectrum","excitation 506 nm, Suppl. Fig. 8c",2.84E+06
same,"Fluorescence intensity, excitation spectrum","excitation 506 nm, Suppl. Fig. 8d",3.35E+06
same,"Fluorescence intensity, excitation spectrum","excitation 508 nm, Suppl. Fig. 8c",3.24E+06
same,"Fluorescence intensity, excitation spectrum","excitation 508 nm, Suppl. Fig. 8d",3.78E+06
same,"Fluorescence intensity, excitation spectrum","excitation 510 nm, Suppl. Fig. 8c",3.46E+06
same,"Fluorescence intensity, excitation spectrum","excitation 510 nm, Suppl. Fig. 8d",4.04E+06
same,"Fluorescence intensity, excitation spectrum","excitation 512 nm, Suppl. Fig. 8c",3.68E+06
same,"Fluorescence intensity, excitation spectrum","excitation 512 nm, Suppl. Fig. 8d",4.26E+06
same,"Fluorescence intensity, excitation spectrum","excitation 514 nm, Suppl. Fig. 8c",3.82E+06
same,"Fluorescence intensity, excitation spectrum","excitation 514 nm, Suppl. Fig. 8d",4.43E+06
same,"Fluorescence intensity, excitation spectrum","excitation 516 nm, Suppl. Fig. 8c",3.88E+06
same,"Fluorescence intensity, excitation spectrum","excitation 516 nm, Suppl. Fig. 8d",4.49E+06
same,"Fluorescence intensity, excitation spectrum","excitation 518 nm, Suppl. Fig. 8c",3.87E+06
same,"Fluorescence intensity, excitation spectrum","excitation 518 nm, Suppl. Fig. 8d",4.49E+06
same,"Fluorescence intensity, excitation spectrum","excitation 520 nm, Suppl. Fig. 8c",3.79E+06
same,"Fluorescence intensity, excitation spectrum","excitation 520 nm, Suppl. Fig. 8d",4.40E+06
same,"Fluorescence intensity, excitation spectrum","excitation 522 nm, Suppl. Fig. 8c",3.58E+06
same,"Fluorescence intensity, excitation spectrum","excitation 522 nm, Suppl. Fig. 8d",4.15E+06
same,"Fluorescence intensity, excitation spectrum","excitation 524 nm, Suppl. Fig. 8c",3.08E+06
same,"Fluorescence intensity, excitation spectrum","excitation 524 nm, Suppl. Fig. 8d",3.57E+06
same,"Fluorescence intensity, excitation spectrum","excitation 526 nm, Suppl. Fig. 8c",2.23E+06
same,"Fluorescence intensity, excitation spectrum","excitation 526 nm, Suppl. Fig. 8d",2.59E+06
same,"Fluorescence intensity, excitation spectrum","excitation 528 nm, Suppl. Fig. 8c",1.32E+06
same,"Fluorescence intensity, excitation spectrum","excitation 528 nm, Suppl. Fig. 8d",1.53E+06
same,"Fluorescence intensity, excitation spectrum","excitation 530 nm, Suppl. Fig. 8c",864935
same,"Fluorescence intensity, excitation spectrum","excitation 530 nm, Suppl. Fig. 8d",1.02E+06
same,"Fluorescence intensity, excitation spectrum","excitation 532 nm, Suppl. Fig. 8c",614350
same,"Fluorescence intensity, excitation spectrum","excitation 532 nm, Suppl. Fig. 8d",720704
same,"Fluorescence intensity, excitation spectrum","excitation 534 nm, Suppl. Fig. 8c",457258
same,"Fluorescence intensity, excitation spectrum","excitation 534 nm, Suppl. Fig. 8d",537252
